Laboratory results published in patent US20250034268A1.
These are yes or no findings as the source states them, for the method shown. Some binding calls cover weakened binding; strength is not graded here.

Chains of the proteins cited; added tags and fusions are not shown. Residues count along the entry.
UniProt O88472, residues 1-49: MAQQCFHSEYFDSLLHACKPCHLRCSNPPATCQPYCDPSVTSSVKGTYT
UniProt Q02223, residues 1-54: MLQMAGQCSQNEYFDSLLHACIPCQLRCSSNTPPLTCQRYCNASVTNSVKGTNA

Legend:
[1] = target: cynomolgus monkey BCMA expressed on CHO GS cells (cynomolgus monkey); experiment: flow cytometry titration on cynoBCMA-CHO GS cells, APC goat anti-human IgG secondary antibody
[2] = target: recombinant mouse BCMA protein (mouse) (UniProt O88472); experiment: SPR (Biacore T200)
[3] = target: recombinant human BCMA protein (human) (UniProt Q02223); experiment: SPR (Biacore T200)
[4] = target: recombinant cynomolgus monkey BCMA protein (cynomolgus monkey); experiment: SPR (Biacore T200)
[5] = target: recombinant mouse BCMA protein (mouse) (UniProt O88472); experiment: SPR (Biacore T200), antibody captured by anti-human Fc IgG on a CM5 chip, BCMA in the mobile phase; concentrations are not printed on the sheet
[6] = target: recombinant human BCMA protein (human) (UniProt Q02223); experiment: as above
[7] = target: recombinant cynomolgus monkey BCMA protein (cynomolgus monkey); experiment: as above
[8] = target: cynomolgus monkey BCMA expressed on CHO GS cells (cynomolgus monkey); experiment: flow cytometry on cynoBCMA-CHO GS cells

Measured: binding

B1: ADI-38497 PG antibody (antibody, V domains shown)
VH: QLQLQESGPGLVKPSETLSLTCTVSGGSIVSSSYYWTWIRQPPGKGLEWIGSISIAGSTYYNPSLKSRVTISVDTSKNQFSLKLSSVTAADTAVYYCARDRGDQILDVWSQGTMVTVSS
VL: DIQMTQSPSSLSASVGDRVTITCRASQSISRYLNWYQQKPGKAPKLLIYAASSLQSGVPSRFSGSGSGTDFTLTISSLQPEDFATYYCQQKYFDITFGGGTKVEIKR
binds: all assays above
